# Source: the supplement of paper PMC11438910
# Some of the results follow. Only a few entries rise above the background.
# B1: 4-127.2 (protein)
# chain 1: QVQLQESGPGLVKPSETLSLTCAVSGYSVNSGHGWTWIRQSPGKGLEWIGYIGGGSGSSNYNPSLKSRVTISKDTSNNQLSLKLRSLTTADTAMYYCARRVPADRSGNDYWGQGVLVTVSS
# chain 2: QSVLTQPPSVSGDPGQRVTISCTGSSSNIGDYYGYWYQQFPGTAPKLLIFDDNNRPSGISDRFSGSKAGTSASLTITGLQPGDEADYYCGAWDGSLNAHVFGSGTKLTVL
# Legend:
# Assay in all cases: fluorescence intensity of antibody binding to polysaccharide-coupled beads; higher = stronger binding
# [1] = target: pneumococcal polysaccharide Pn11A
# [2] = target: pneumococcal polysaccharide Pn11B
# [3] = target: pneumococcal polysaccharide Pn11C
# [4] = target: pneumococcal polysaccharide Pn11D
# [5] = target: pneumococcal polysaccharide Pn11F
# [6] = target: pneumococcal polysaccharide Pn12A
# [7] = target: pneumococcal polysaccharide Pn12B
# [8] = target: pneumococcal polysaccharide Pn12F
# [9] = target: pneumococcal polysaccharide Pn13
# [10] = target: pneumococcal polysaccharide Pn14
# [11] = target: pneumococcal polysaccharide Pn15A
# [12] = target: pneumococcal polysaccharide Pn15B
# [13] = antibody concentration 81.7561 ng/mL
# [14] = antibody concentration 437.17 ng/mL
# [15] = antibody concentration 2337.65 ng/mL
# [16] = antibody concentration 12500 ng/mL
# [17] = antibody concentration 0.1 ng/mL
# [18] = antibody concentration 0.534724 ng/mL
# [19] = antibody concentration 2.8593 ng/mL
# [20] = antibody concentration 15.2894 ng/mL
binder,measurement,setting,value
B1,fluorescence intensity,[1]; [13],28.5 MFI
same,fluorescence intensity,[1]; [14],34.2 MFI
same,fluorescence intensity,[1]; [15],33 MFI
same,fluorescence intensity,[1]; [16],42.5 MFI
same,fluorescence intensity,[2]; [17],26 MFI
same,fluorescence intensity,[2]; [18],27 MFI
same,fluorescence intensity,[2]; [19],25.5 MFI
same,fluorescence intensity,[2]; [20],25.5 MFI
same,fluorescence intensity,[2]; [13],25.5 MFI
same,fluorescence intensity,[2]; [14],26.2 MFI
same,fluorescence intensity,[2]; [15],30 MFI
same,fluorescence intensity,[2]; [16],34.5 MFI
same,fluorescence intensity,[3]; [17],21.2 MFI
same,fluorescence intensity,[3]; [18],21.5 MFI
same,fluorescence intensity,[3]; [19],21.5 MFI
same,fluorescence intensity,[3]; [20],22 MFI
same,fluorescence intensity,[3]; [13],23.2 MFI
same,fluorescence intensity,[3]; [14],22.8 MFI
same,fluorescence intensity,[3]; [15],40.8 MFI
same,fluorescence intensity,[3]; [16],286 MFI
same,fluorescence intensity,[4]; [17],23 MFI
same,fluorescence intensity,[4]; [18],22 MFI
same,fluorescence intensity,[4]; [19],22 MFI
same,fluorescence intensity,[4]; [20],24 MFI
same,fluorescence intensity,[4]; [13],23 MFI
same,fluorescence intensity,[4]; [14],22 MFI
same,fluorescence intensity,[4]; [15],30 MFI
same,fluorescence intensity,[4]; [16],124 MFI
same,fluorescence intensity,[5]; [17],13 MFI
same,fluorescence intensity,[5]; [18],14 MFI
same,fluorescence intensity,[5]; [19],14 MFI
same,fluorescence intensity,[5]; [20],13 MFI
same,fluorescence intensity,[5]; [13],14 MFI
same,fluorescence intensity,[5]; [14],16 MFI
same,fluorescence intensity,[5]; [15],17 MFI
same,fluorescence intensity,[5]; [16],26.5 MFI
same,fluorescence intensity,[6]; [17],15 MFI
same,fluorescence intensity,[6]; [18],15.5 MFI
same,fluorescence intensity,[6]; [19],13.5 MFI
same,fluorescence intensity,[6]; [20],15 MFI
same,fluorescence intensity,[6]; [13],14 MFI
same,fluorescence intensity,[6]; [14],15.5 MFI
same,fluorescence intensity,[6]; [15],18 MFI
same,fluorescence intensity,[6]; [16],39 MFI
same,fluorescence intensity,[7]; [17],15.5 MFI
same,fluorescence intensity,[7]; [18],14.8 MFI
same,fluorescence intensity,[7]; [19],16 MFI
same,fluorescence intensity,[7]; [20],15.5 MFI
same,fluorescence intensity,[7]; [13],16.5 MFI
same,fluorescence intensity,[7]; [14],15 MFI
same,fluorescence intensity,[7]; [15],19 MFI
same,fluorescence intensity,[7]; [16],40 MFI
same,fluorescence intensity,[8]; [17],19 MFI
same,fluorescence intensity,[8]; [18],18 MFI
same,fluorescence intensity,[8]; [19],18.5 MFI
same,fluorescence intensity,[8]; [20],16.5 MFI
same,fluorescence intensity,[8]; [13],18 MFI
same,fluorescence intensity,[8]; [14],21 MFI
same,fluorescence intensity,[8]; [15],26.5 MFI
same,fluorescence intensity,[8]; [16],63 MFI
same,fluorescence intensity,[9]; [17],17.8 MFI
same,fluorescence intensity,[9]; [18],18 MFI
same,fluorescence intensity,[9]; [19],17 MFI
same,fluorescence intensity,[9]; [20],17.8 MFI
same,fluorescence intensity,[9]; [13],18.5 MFI
same,fluorescence intensity,[9]; [14],19 MFI
same,fluorescence intensity,[9]; [15],20.5 MFI
same,fluorescence intensity,[9]; [16],47.5 MFI
same,fluorescence intensity,[10]; [17],14 MFI
same,fluorescence intensity,[10]; [18],13 MFI
same,fluorescence intensity,[10]; [19],13 MFI
same,fluorescence intensity,[10]; [20],14.5 MFI
same,fluorescence intensity,[10]; [13],14.5 MFI
same,fluorescence intensity,[10]; [14],19.2 MFI
same,fluorescence intensity,[10]; [15],41.5 MFI
same,fluorescence intensity,[10]; [16],280 MFI
same,fluorescence intensity,[11]; [17],13 MFI
same,fluorescence intensity,[11]; [18],12.5 MFI
same,fluorescence intensity,[11]; [19],12 MFI
same,fluorescence intensity,[11]; [20],12.5 MFI
same,fluorescence intensity,[11]; [13],12 MFI
same,fluorescence intensity,[11]; [14],13.5 MFI
same,fluorescence intensity,[11]; [15],13.5 MFI
same,fluorescence intensity,[11]; [16],17 MFI
same,fluorescence intensity,[12]; [17],17.5 MFI
same,fluorescence intensity,[12]; [18],19 MFI
same,fluorescence intensity,[12]; [19],19 MFI
same,fluorescence intensity,[12]; [20],18 MFI
same,fluorescence intensity,[12]; [13],17 MFI
same,fluorescence intensity,[12]; [14],24 MFI

# Some of the entries so far, as tab-separated lines:
binder	measurement	setting	value
B1	fluorescence intensity	[2]; [13]	25.5 MFI
same	fluorescence intensity	[2]; [14]	26.2 MFI
same	fluorescence intensity	[2]; [15]	30 MFI
same	fluorescence intensity	[2]; [16]	34.5 MFI
same	fluorescence intensity	[3]; [17]	21.2 MFI
same	fluorescence intensity	[3]; [18]	21.5 MFI
same	fluorescence intensity	[3]; [19]	21.5 MFI
same	fluorescence intensity	[3]; [20]	22 MFI
same	fluorescence intensity	[3]; [13]	23.2 MFI
same	fluorescence intensity	[3]; [14]	22.8 MFI
same	fluorescence intensity	[3]; [15]	40.8 MFI
same	fluorescence intensity	[3]; [16]	286 MFI
same	fluorescence intensity	[4]; [17]	23 MFI
same	fluorescence intensity	[4]; [18]	22 MFI
same	fluorescence intensity	[4]; [19]	22 MFI
same	fluorescence intensity	[4]; [20]	24 MFI
same	fluorescence intensity	[4]; [13]	23 MFI
same	fluorescence intensity	[4]; [14]	22 MFI
same	fluorescence intensity	[4]; [15]	30 MFI
same	fluorescence intensity	[4]; [16]	124 MFI
same	fluorescence intensity	[5]; [17]	13 MFI
